Source: patent publication US20240075161A1
No constants are given. Whether binding was seen depends on the method and setting. Some entries that bind do so weakly or less than the wild type. Where a sequence is shown, tags or fusion partners need not be part of it.

Molecular target: T1, Colony stimulating factor 1 receptor (CSF1R) on CSF1R+ cells (mouse) (UniProt P09581)
T1 sequence (looked up): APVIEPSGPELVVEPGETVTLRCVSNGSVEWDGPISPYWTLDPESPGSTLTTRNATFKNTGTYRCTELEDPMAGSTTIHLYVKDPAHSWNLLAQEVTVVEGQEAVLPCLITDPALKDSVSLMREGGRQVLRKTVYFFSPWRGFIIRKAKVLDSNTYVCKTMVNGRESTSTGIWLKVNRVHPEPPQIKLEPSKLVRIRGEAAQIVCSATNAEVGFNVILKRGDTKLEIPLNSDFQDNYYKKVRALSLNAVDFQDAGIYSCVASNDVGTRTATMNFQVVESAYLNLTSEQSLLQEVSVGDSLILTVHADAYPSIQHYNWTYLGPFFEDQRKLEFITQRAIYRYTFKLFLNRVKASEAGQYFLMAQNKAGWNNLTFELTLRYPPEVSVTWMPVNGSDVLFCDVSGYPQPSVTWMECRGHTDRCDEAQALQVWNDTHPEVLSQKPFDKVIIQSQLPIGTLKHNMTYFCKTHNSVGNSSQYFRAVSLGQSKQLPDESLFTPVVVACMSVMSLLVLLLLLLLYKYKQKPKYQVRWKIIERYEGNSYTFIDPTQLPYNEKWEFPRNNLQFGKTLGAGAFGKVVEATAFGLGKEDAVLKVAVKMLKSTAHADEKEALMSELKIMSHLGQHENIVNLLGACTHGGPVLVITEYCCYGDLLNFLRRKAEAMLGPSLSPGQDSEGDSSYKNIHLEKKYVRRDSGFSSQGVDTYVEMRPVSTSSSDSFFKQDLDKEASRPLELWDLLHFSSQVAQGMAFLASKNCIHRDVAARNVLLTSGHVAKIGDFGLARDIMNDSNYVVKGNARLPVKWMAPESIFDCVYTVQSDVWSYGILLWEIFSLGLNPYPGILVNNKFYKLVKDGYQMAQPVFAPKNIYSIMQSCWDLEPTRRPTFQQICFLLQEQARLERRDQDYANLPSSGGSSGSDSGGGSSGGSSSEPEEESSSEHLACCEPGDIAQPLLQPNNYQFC
Assay: fluorescence images of exosome uptake by CSF1R+ cells, stained with anti-CSF1R antibody

binding: binds
B1: Lamp2b signaling peptide-linker-mouse CSF1R targeting peptides-linker-mouse IgG2b-linker-Myc-Lamp2b C-terminus fusion, displayed on HEK293 engineered exosomes (Fc fusion)
chain: SAGNSTMGSGSEHCSHMIGNGHLKVLQQLIDSQMETSCQIAFEFVDQEQLDDPVCYLKKAFFLVQDIIDETMRFKDNTPNANATERLQELSNNLNSCFTKDYEEQNKACVRTFHETPLQLLEKIKNFFNETKNLLEGSGSGGSSGSGPISTINPCPPCKECHKCPAPNLEGGPSVFIFPPNIKDVLMISLTPKVTCVVVDVSEDDPDVQISWFVNNVEVHTAQTQTHREDYNSTIRVVSTLPIQHQDWMSGKEFKCKVNNKDLPSPIERTISKIKGLVRAPQVYILPPPAEQLSRKDVSLTCLVVGFNPGDISVEWTSNGHTEENYKDTAPVLDSDGSYFIYSKLDIKTSKWEKTDSFSCNVRHEGLKNYYLKKTISRSPGDIGEQKLISEEDLLIVNLTDSKGTCLYAEWEMNFTITYETTNQTNKTITIAVPDKATHDGSSCGDDRNSAKIMIQFGFAVSWAVNFTKEASHYSIHDIVLSYNTSDSTVFPGAVAKGVHTVKNPENFKVPLDVIFKCNSVLTYNLTPVVQKYWGIHLQAFVQNGTVSKNEQVCEEDQTPTTVAPIIHTTAPSTTTTLTPTSTPTPTPTPTPTVGNYSIRNGNTTCLLATMGLQLNITEEKVPFIFNINPATTNFTGSCQPQSAQLRLNNSQIKYLDFIFAVKNEKRFYLKEVNVYMYLANGSAFNISNKNLSFWDAPLGSSYMCNKEQVLSVSRAFQINTFNLKVQPFNVTKGQYSTAEECAADSDLNFLIPVAVGVALGFLIIAVFISYMIGRRKSRTGYQSVHHHHHH
